According to patent publication US12503439B2, “Heteroaryl compounds for the treatment of pain” (VERTEX PHARMACEUTICALS INCORPORATED, priority 2022, dated 2025):
pIC50: −log10 of the molar value. Some results were stated once for a whole list of compounds, not compound by compound.

By UniProt entry, the sequences of proteins in these tests, tags left out. Residues count along the entry.
UniProt Q9Y5Y9, 126-1722 limits assumed: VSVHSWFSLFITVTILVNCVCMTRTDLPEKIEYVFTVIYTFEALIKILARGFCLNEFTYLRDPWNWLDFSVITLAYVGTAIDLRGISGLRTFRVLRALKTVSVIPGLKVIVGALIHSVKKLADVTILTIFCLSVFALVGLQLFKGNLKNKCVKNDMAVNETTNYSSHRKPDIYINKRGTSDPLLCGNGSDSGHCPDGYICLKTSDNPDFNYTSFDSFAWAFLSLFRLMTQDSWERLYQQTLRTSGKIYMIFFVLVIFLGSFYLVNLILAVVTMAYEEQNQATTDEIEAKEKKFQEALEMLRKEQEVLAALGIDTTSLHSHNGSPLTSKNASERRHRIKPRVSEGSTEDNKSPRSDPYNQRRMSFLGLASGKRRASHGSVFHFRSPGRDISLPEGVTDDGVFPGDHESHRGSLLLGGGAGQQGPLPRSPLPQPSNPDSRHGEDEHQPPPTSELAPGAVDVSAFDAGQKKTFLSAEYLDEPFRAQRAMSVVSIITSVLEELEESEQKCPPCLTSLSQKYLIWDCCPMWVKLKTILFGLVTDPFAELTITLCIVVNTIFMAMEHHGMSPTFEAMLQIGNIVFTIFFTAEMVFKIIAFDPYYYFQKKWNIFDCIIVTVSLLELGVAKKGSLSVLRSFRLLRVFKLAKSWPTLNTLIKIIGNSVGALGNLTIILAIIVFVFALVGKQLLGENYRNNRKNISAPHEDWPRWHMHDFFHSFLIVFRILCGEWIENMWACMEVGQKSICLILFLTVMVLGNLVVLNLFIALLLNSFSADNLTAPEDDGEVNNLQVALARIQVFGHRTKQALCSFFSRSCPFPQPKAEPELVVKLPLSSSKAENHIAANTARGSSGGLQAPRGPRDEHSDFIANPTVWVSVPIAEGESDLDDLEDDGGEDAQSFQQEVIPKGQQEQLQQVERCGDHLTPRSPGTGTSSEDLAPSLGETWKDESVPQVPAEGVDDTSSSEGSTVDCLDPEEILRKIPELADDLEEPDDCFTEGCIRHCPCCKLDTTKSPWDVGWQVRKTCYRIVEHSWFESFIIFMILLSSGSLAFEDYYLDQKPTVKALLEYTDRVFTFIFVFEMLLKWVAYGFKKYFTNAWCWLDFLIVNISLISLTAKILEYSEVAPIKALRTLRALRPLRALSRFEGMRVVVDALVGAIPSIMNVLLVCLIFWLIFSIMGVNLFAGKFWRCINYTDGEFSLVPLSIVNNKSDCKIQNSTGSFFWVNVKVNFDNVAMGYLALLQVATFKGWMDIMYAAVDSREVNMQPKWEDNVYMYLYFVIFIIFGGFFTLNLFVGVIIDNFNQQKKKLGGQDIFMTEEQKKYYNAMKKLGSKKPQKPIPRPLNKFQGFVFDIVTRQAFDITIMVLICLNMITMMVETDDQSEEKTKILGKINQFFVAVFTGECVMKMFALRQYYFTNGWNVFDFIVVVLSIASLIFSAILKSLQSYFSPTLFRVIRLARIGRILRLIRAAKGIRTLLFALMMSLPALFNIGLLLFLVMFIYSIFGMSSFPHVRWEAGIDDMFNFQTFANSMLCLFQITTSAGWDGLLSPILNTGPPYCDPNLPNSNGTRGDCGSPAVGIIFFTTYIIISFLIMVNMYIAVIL

Biological target: truncated form of human NaV 1.8 with full channel activity (expressed in HEK cells) (Homo sapiens, UniProt Q9Y5Y9)
Experiment: E-VIPR assay detecting and measuring NaV inhibition properties (electrical stimulation, membrane potential FRET dyes)
Format: cell-based
Settings: HEK cells expressing truncated human NaV 1.8, KIR2.1 BacMam; 11-point dose response; 30 min compound incubation; stimulation 10 Hz for 10 s; read-out: measured IC50 value in the E-VIPR Assay

| SMILES | pIC50 |
| --- | --- |
| Cc1cn(C)c(-c2nccc3[nH]c(-c4cnc(C5CC(F)(F)C5)cc4C4CCC(C(F)(F)F)CC4)cc(=O)c23)n1 (stereo not shown) [Compound 233, 2-[6-(3,3-difluorocyclobutyl)-4-[4-(trifluoromethyl)cyclohexyl]-3-pyridyl]-5-(1,4-dimethylimidazol-2-yl)-1H-1,6-naphthyridin-4-one] | > 6.30 |
| O=c1cc(-c2cc3ccccc3nc2N2CCCC(F)(F)CC2)[nH]c2ccncc12 [Compound 58, 2-[2-(4,4-difluoroazepan-1-yl)-3-quinolyl]-1H-1,6-naphthyridin-4-one] | > 6.30 |
| Cc1c(Oc2ncc(C(F)(F)F)c(C)c2-c2cc(=O)c3c(-c4ccccn4)cccc3[nH]2)ccc(F)c1F [Compound 212, 2-[2-(3,4-difluoro-2-methyl-phenoxy)-4-methyl-5-(trifluoromethyl)-3-pyridyl]-5-(2-pyridyl)-1H-quinolin-4-one] | > 6.30 |
| NC(=O)c1nccc2[nH]c(-c3cc4ccccc4nc3N3CCC4(CC3)CC4)cc(=O)c12 [Compound 290, 2-[2-(6-azaspiro[2.5]octan-6-yl)-3-quinolyl]-4-oxo-1H-1,6-naphthyridine-5-carboxamide] | > 6.30 |
| Cc1c(Oc2nc3ccccc3cc2-c2cc(=O)c3cc(F)ccc3[nH]2)ccc(F)c1F [Compound 16, 2-[2-(3,4-difluoro-2-methyl-phenoxy)-3-quinolyl]-6-fluoro-1H-quinolin-4-one] | > 6.30 |
| NC(=O)c1nccc2[nH]c(-c3ccc(C4CC(F)(F)C4)cc3C3CCC(C(F)(F)F)CC3)cc(=O)c12 (stereo not shown) [Compound 120, 2-[4-(3,3-difluorocyclobutyl)-2-[4-(trifluoromethyl)cyclohexyl]phenyl]-4-oxo-1H-1,6-naphthyridine-5-carboxamide] | > 6.30 |
| CC1(c2cc(-c3cc(=O)c4c(C(N)=O)nccc4[nH]3)n(C3CCC(F)(F)CC3)n2)CC(F)(F)C1 [Compound 358, 2-[2-(4,4-difluorocyclohexyl)-5-(3,3-difluoro-1-methyl-cyclobutyl)pyrazol-3-yl]-4-oxo-1H-1,6-naphthyridine-5-carboxamide] | > 6.30 |
| NC(=O)c1nccc2[nH]c(-c3cc4ccccc4nc3N3CC4CCCCCC4C3)cc(=O)c12 (stereo not shown) [Compound 302, 2-[2-(3,3a,4,5,6,7,8,8a-octahydro-1H-cyclohepta[c]pyrrol-2-yl)-3-quinolyl]-4-oxo-1H-1,6-naphthyridine-5-carboxamide] | > 6.30 |
| COc1cc(F)ccc1Oc1cc(C(C)(C)C)cc(C)c1-c1cc(=O)c2cc(F)ccc2[nH]1 [Compound 34, 2-[4-tert-butyl-2-(4-fluoro-2-methoxy-phenoxy)-6-methyl-phenyl]-6-fluoro-1H-quinolin-4-one] | > 6.30 |
| Cc1c(C(F)(F)F)cnc(Oc2ccc(F)c(F)c2C=O)c1-c1cc(=O)c2c(C(N)=O)nccc2[nH]1 [Compound 344, 2-[2-(3,4-difluoro-2-formyl-phenoxy)-4-methyl-5-(trifluoromethyl)-3-pyridyl]-4-oxo-1H-1,6-naphthyridine-5-carboxamide] | > 6.30 |
| NC(=O)c1nccc2[nH]c(-c3cc4ccccc4nc3N3CCC(C(F)(F)F)CC3)cc(=O)c12 [Compound 292, 4-oxo-2-[2-[4-(trifluoromethyl)-1-piperidyl]-3-quinolyl]-1H-1,6-naphthyridine-5-carboxamide] | > 6.30 |
| CC1(c2cc(C3CCC(C(F)(F)F)CC3)c(-c3cc(=O)c4c(C(N)=O)nccc4[nH]3)cn2)CC1 (stereo not shown) [Compound 136, 2-[6-(1-methylcyclopropyl)-4-[4-(trifluoromethyl)cyclohexyl]-3-pyridyl]-4-oxo-1H-1,6-naphthyridine-5-carboxamide] | > 6.30 |
| COc1cccc2[nH]c(-c3cc4ccccc4nc3Oc3ccc(F)c(F)c3C)cc(=O)c12 [Compound 20, 2-[2-(3,4-difluoro-2-methyl-phenoxy)-3-quinolyl]-5-methoxy-1H-quinolin-4-one] | > 6.30 |
| Cc1cc(-c2cc(=O)c3ncccc3[nH]2)c(N2CCCC(F)(F)CC2)nc1C(F)(F)F [Compound 80, 2-[2-(4,4-difluoroazepan-1-yl)-5-methyl-6-(trifluoromethyl)-3-pyridyl]-1H-1,5-naphthyridin-4-one] | > 6.30 |
| NC(=O)c1nccc2[nH]c(-c3cc(C(F)(F)F)cnc3N3CCCC(F)(F)CC3)cc(=O)c12 [Compound 100, 2-[2-(4,4-difluoroazepan-1-yl)-5-(trifluoromethyl)-3-pyridyl]-4-oxo-1H-1,6-naphthyridine-5-carboxamide] | > 6.30 |
| CC(C)(c1nn(C2CCC(F)(F)CC2)c(-c2cc(=O)c3c(C(N)=O)nccc3[nH]2)c1Br)C(F)(F)F [Compound 366, 2-[4-bromo-2-(4,4-difluorocyclohexyl)-5-(2,2,2-trifluoro-1,1-dimethyl-ethyl)pyrazol-3-yl]-4-oxo-1H-1,6-naphthyridine-5-carboxamide] | > 6.30 |
| NC(=O)c1nccc2[nH]c(-c3cc4ccccc4nc3N3CCCC(F)(F)CC3)c(Br)c(=O)c12 [Compound 313, 3-bromo-2-[2-(4,4-difluoroazepan-1-yl)-3-quinolyl]-4-oxo-1H-1,6-naphthyridine-5-carboxamide] | > 6.30 |
| Cc1c(Oc2nc(C(F)(F)F)c(Cl)cc2-c2cc(=O)c3cccc(F)c3[nH]2)ccc(F)c1F [Compound 51, 2-[5-chloro-2-(3,4-difluoro-2-methyl-phenoxy)-6-(trifluoromethyl)-3-pyridyl]-8-fluoro-1H-quinolin-4-one] | > 6.30 |
| COc1cc(OC)c2c(=O)cc(-c3cc(C)c(C(F)(F)F)nc3N3CCCC(F)(F)CC3)[nH]c2c1 [Compound 73, 2-[2-(4,4-difluoroazepan-1-yl)-5-methyl-6-(trifluoromethyl)-3-pyridyl]-5,7-dimethoxy-1H-quinolin-4-one] | > 6.30 |
| Cc1c(Oc2nc3ccccc3cc2-c2cc(=O)c3ccccc3[nH]2)ccc(F)c1F [Compound 148, 2-[2-(3,4-difluoro-2-methyl-phenoxy)-3-quinolyl]-1H-quinolin-4-one] | > 6.30 |
| O=c1cc(-c2cc(Cl)c(C(F)(F)F)nc2N2CCCC(F)(F)CC2)[nH]c2ccccc12 [Compound 85, 2-[5-chloro-2-(4,4-difluoroazepan-1-yl)-6-(trifluoromethyl)-3-pyridyl]-1H-quinolin-4-one] | > 6.30 |
| Cc1c(C(C)(C)C)nn(Cc2ccc(F)cc2)c1-c1cc(=O)c2c(C(N)=O)nccc2[nH]1 [Compound 378, 2-(3-(tert-butyl)-1-(4-fluorobenzyl)-4-methyl-1H-pyrazol-5-yl)-4-oxo-1,4-dihydro-1,6-naphthyridine-5-carboxamide] | > 6.30 |

Continued, values first:

| pIC50 | SMILES |
| --- | --- |
| > 6.30 | Cc1c(Oc2ncc(C(F)(F)F)c(C)c2-c2cc(=O)c3c(C(=O)N[C@H]4COC[C@@H]4O)nccc3[nH]2)ccc(F)c1F [Compound 274, 2-[2-(3,4-difluoro-2-methyl-phenoxy)-4-methyl-5-(trifluoromethyl)-3-pyridyl]-N-[(3S,4R)-4-hydroxytetrahydrofuran-3-yl]-4-oxo-1H-1,6-naphthyridine-5-carboxamide] |
| > 6.30 | CC(C)(C)c1cc(-c2cc(=O)c3c(C(N)=O)nccc3[nH]2)n(C2CCC(C(F)(F)F)CC2)n1 (stereo not shown) [Compound 351, 2-[5-tert-butyl-2-[4-(trifluoromethyl)cyclohexyl]pyrazol-3-yl]-4-oxo-1H-1,6-naphthyridine-5-carboxamide] |
| > 6.30 | Cc1c(Oc2ncc(C(F)(F)F)c(C)c2-c2cc(=O)c3c(-c4ccnn4C)nccc3[nH]2)ccc(F)c1F [Compound 241, 2-[2-(3,4-difluoro-2-methyl-phenoxy)-4-methyl-5-(trifluoromethyl)-3-pyridyl]-5-(2-methylpyrazol-3-yl)-1H-1,6-naphthyridin-4-one] |
| > 6.30 | NC(=O)c1nccc2[nH]c(-c3cc4ccccc4nc3C3CCC(F)(F)CC3)cc(=O)c12 [Compound 111, 2-[2-(4,4-difluorocyclohexyl)-3-quinolyl]-4-oxo-1H-1,6-naphthyridine-5-carboxamide] |
| > 6.30 | CCOc1nccc2[nH]c(-c3cc(C)c(C(F)(F)F)nc3N3CCCC(F)(F)CC3)cc(=O)c12 [Compound 192, 2-[2-(4,4-difluoroazepan-1-yl)-5-methyl-6-(trifluoromethyl)-3-pyridyl]-5-ethoxy-1H-1,6-naphthyridin-4-one] |
| > 6.30 | O=c1cc(-c2cc(Cl)c(C(F)(F)F)nc2N2CCCC(F)(F)CC2)[nH]c2ccncc12 [Compound 102, 2-[5-chloro-2-(4,4-difluoroazepan-1-yl)-6-(trifluoromethyl)-3-pyridyl]-1H-1,6-naphthyridin-4-one] |
| > 6.30 | Cc1c(Oc2nc(C(F)(F)F)c(Cl)cc2-c2cc(=O)c3ccccc3[nH]2)ccc(F)c1F [Compound 52, 2-[5-chloro-2-(3,4-difluoro-2-methyl-phenoxy)-6-(trifluoromethyl)-3-pyridyl]-1H-quinolin-4-one] |
| > 6.30 | N#Cc1ccc2[nH]c(-c3cc4ccccc4nc3N3CCCC(F)(F)CC3)cc(=O)c2n1 [Compound 61, 6-[2-(4,4-difluoroazepan-1-yl)-3-quinolyl]-8-oxo-5H-1,5-naphthyridine-2-carbonitrile] |
| > 6.30 | Cc1cc(-c2cc(=O)c3ccc(F)cc3[nH]2)c(N2CCCC(F)(F)CC2)nc1C(F)(F)F [Compound 71, 2-[2-(4,4-difluoroazepan-1-yl)-5-methyl-6-(trifluoromethyl)-3-pyridyl]-7-fluoro-1H-quinolin-4-one] |
| > 6.30 | CC(C)(C)c1nc(N2CCCC(F)(F)CC2)c(-c2cc(=O)c3c(C(N)=O)nccc3[nH]2)cc1Cl [Compound 91, 2-[6-tert-butyl-5-chloro-2-(4,4-difluoroazepan-1-yl)-3-pyridyl]-4-oxo-1H-1,6-naphthyridine-5-carboxamide] |
| > 6.30 | O=c1cc(-c2cc(C(F)(F)F)cnc2N2CCCC(F)(F)CC2)[nH]c2ccccc12 [Compound 93, 2-[2-(4,4-difluoroazepan-] |
| > 6.30 | CC(C)(C)c1cc(-c2cc(=O)c3c(C(N)=O)nccc3[nH]2)n(C2CCC(F)(F)CC2)n1 [Compound 353, 2-[5-tert-butyl-2-(4,4-difluorocyclohexyl)pyrazol-3-yl]-4-oxo-1H-1,6-naphthyridine-5-carboxamide] |
